Reference: PubChem BioAssay AID1259415 (National Center for Advancing Translational Sciences (NCATS), 2018)
Among all 410,000 compounds or so, about 18,000 (4.4%) were called active. The shares of active, inactive and inconclusive entries below differ from those in the screen. Cut-off read from the data, not from the text of the source: active = activity change below about -60%; inconclusive = no clear call, values can overlap the other calls; inactive = above about -39%.

Assay: qHTS Assay for inhibitors of the human cytomegalovirus (HCMV)
Details: HFF cells, HCMV-luciferase reporter, 72 h; at 57.5 µM; active compounds read low
Method in brief: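 HFF cells seeded 16 h at 37C, treated with compounds, infected with luciferase-reporter HCMV at MOI 1 PFU/cell; luciferase read at 72 h post infection, normalized to buffer-only and Salinomycin controls.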
% is set by controls: 0 for no effect and ±100 for the full control effect.

Row | Structure (SMILES) | activity change, negative = inhibition
1 | COC(=O)C1=C(N)Oc2cc(C)[nH]c(=O)c2C1c1cc(OC)c(OC)c(OC)c1 (stereo unspecified) | inconclusive: -56.3%
2 | COc1ccc(NC(=O)CN(C)C(=O)C(C)Oc2ccc(Br)cc2)cc1 (stereo unspecified) | inconclusive: -46.8%
3 | CCCCNCc1cc2ccccc2o1 | inconclusive: 0%
4 | COc1cc2c(cc1OC)CN(C(=O)c1ccc(-c3ccccc3)cc1)CC2 | inconclusive: -50.8%
5 | CCC(=O)c1ccc(OCC(=O)OCC(=O)NCC2CCCO2)cc1 (stereo unspecified) | inactive: 2.73%
6 | O=C(NCCS(=O)(=O)N1CCN(C(=O)c2ccco2)CC1)c1ccccc1 | active: -79.1%
7 | O=C(CN1CCOCC1)c1ccc2cc[nH]c2c1 | inactive: 1.77%
8 | COC(=O)c1cc2oc3ccccc3c2n1CC(=O)Nc1cccc(SC)c1 | inconclusive: -52.5%
9 | O=c1c2ccccc2cnn1Cc1ccc(Br)cc1F | inactive: 9.48%
10 | CC(C)C(=O)Nc1cccc(C(=O)Nc2cc([N+](=O)[O-])ccc2Cl)c1 | inconclusive: -54.8%
11 | COc1ccc(NC(=S)Nc2cc(C(F)(F)F)ccc2F)cc1 | inconclusive: -48.4%
12 | CC(C)Cn1c(-c2ccncc2)n[nH]c1=S | inconclusive: -41.9%
13 | COc1ccc2nc(NC(=O)C3CCCN(S(=O)(=O)c4cccs4)C3)sc2c1 (stereo unspecified) | inconclusive: -52.4%
14 | CC(C)(C)n1ncc2c(=O)n(CC(=O)OCc3ccccc3)cnc21 | inconclusive: -42.6%
15 | O=C(c1cc([N+](=O)[O-])ccc1N1CCOCC1)N1CCCCC1 | inconclusive: -45.5%
16 | CC(C)=CCn1c2ccc(NC(=O)Nc3ccc(N(C)C)cc3)cc2c(=O)n1C | inconclusive: -49.7%
17 | CCOC(=O)CNC(=O)N1CCCC(C(=O)c2cccc(Cl)c2)C1 (stereo unspecified) | inactive: 19.4%
18 | COc1ccc(/C=C/C(=O)OCC(=O)c2ccc3c(c2)NC(=O)CO3)c(OC)c1 | inconclusive: -44.7%
19 | CC(C)(C)c1ccc(C(=O)NCCN2CCCC2)cc1 | inconclusive: -43.2%

Row | Structure (SMILES) | activity change, negative = inhibition
20 | COc1ccc(C(=O)c2sc(NC(C)C)nc2N)cc1OC | inconclusive: -51.4%
21 | COc1ccc(NC(=O)Nc2ccccc2F)c([N+](=O)[O-])c1 | inconclusive: -46.5%
22 | COc1ccc(CC(=O)N2CC3ON=C(c4c(F)cccc4Cl)C3C2)cc1OC (stereo unspecified) | active: -61.7%
23 | COc1ccc(-c2nnc(SCc3c(C)noc3C)o2)cc1 | inactive: 45%
24 | COc1ccc(C(=O)NC(Nc2ccccc2)C(Cl)(Cl)Cl)cc1 (stereo unspecified) | inconclusive: -44.3%
25 | Cc1ccc2occ(CC(=O)Nc3ccc(Cl)c(C(F)(F)F)c3)c2c1 | active: -77.7%
26 | Cc1ccc(C(=O)COC(=O)c2cn(-c3ccccc3)nc2-c2ccccc2)cc1[N+](=O)[O-] | inconclusive: -51.4%
27 | COc1ccc(C2=C(C)C(N3CCN(c4ccc(OC)cc4)CC3)=NS2(=O)=O)cc1 | inconclusive: -57.7%
28 | Cc1ccc(/C=N\NC(=O)/C(=C\Nc2nccc(C)n2)NC(=O)c2ccccc2)cc1 | inconclusive: -55.3%
29 | CCC(C)NCC(=O)Nc1ccc(S(N)(=O)=O)cc1 (stereo unspecified) | inactive: 19.9%
30 | Cc1ccc(C(CNC(=O)Nc2cccc(C)c2)N2CCN(C)CC2)cc1 (stereo unspecified) | inconclusive: -49.8%
31 | CC(=O)NC12CC3CC(C1)CC(C(=O)N1CCN(S(=O)(=O)c4cccc(C(F)(F)F)c4)CC1)(C3)C2 | inconclusive: -43.7%
32 | CCOC(=O)C1=C(CC)Nc2ccccc2N/C1=N\S(=O)(=O)c1cc(Br)ccc1Br | inconclusive: -41.1%
33 | Cc1ccc2nc(SCC(=O)Nc3ccc(F)cc3)nc(=O)n2c1 | inconclusive: -47.3%
34 | COc1ccc(/C=N/Nc2cc(N3CCOCC3)ncn2)c(OC)c1 | inactive: 8.56%
35 | CC(C)OC(=O)c1ccc(NC(=O)c2cncc(Br)c2)cc1 | inconclusive: -49.6%
36 | O=C(O)Cc1ccc(NC(=O)Nc2cccc(Cl)c2)cc1 | inactive: -22.1%
37 | N#Cc1c(-c2ccccc2)c(-c2ccccc2)nn(CC(=O)NNC(=O)Nc2ccc(Cl)cc2)c1=O | inconclusive: -40.1%
38 | Cc1cccc(N(Cc2cc3ccc(C)cc3[nH]c2=O)S(=O)(=O)c2ccccc2)c1 | inconclusive: -46.4%

Row | Structure (SMILES) | activity change, negative = inhibition
39 | COc1ccc(NC(=O)Nc2ccon2)cc1OC | inactive: 0.156%
40 | COc1cc(NC(C)CCCNC(C)C)c2ncccc2c1OC (stereo unspecified) | active: -81.5%
41 | O=C(NC1CCCCC1)C(c1ccccc1F)N(C(=O)c1csnn1)C1CCCC1 (stereo unspecified) | active: -60.2%
42 | NS(=O)(=O)c1ccc(NC2=CC(c3ccc([N+](=O)[O-])cc3)N(c3ccc(S(N)(=O)=O)cc3)C2=O)cc1 (stereo unspecified) | inconclusive: -52.9%
43 | O=C(NCC1(c2ccccc2)CCCC1)c1cccc(Br)c1 | inconclusive: -51.9%
44 | OC(c1ccccc1)(c1nc(-c2cccc3cccnc23)cs1)C(F)(F)F (stereo unspecified) | inconclusive: -58.1%
45 | COc1ccc(/C=C2\CCC/C(=C\C=N\N(C)C)C2=O)cc1 | inconclusive: -50.6%
46 | Cc1ccc(-c2nc3ccccn3c2Nc2ccccc2)o1 | inconclusive: -44.8%
47 | O=C(CSc1cccc[n+]1[O-])N1CCCc2ccccc21 | inconclusive: -42.2%
48 | Cc1ccc(-c2onc(C)c2C)cc1S(=O)(=O)Nc1cccc(Cl)c1C | inconclusive: -49%
49 | COc1ccc(N2C(=O)CCSC23C(=O)N(Cc2ccc(F)cc2)c2ccccc23)cc1 (stereo unspecified) | inconclusive: 0%
50 | O=C(CCCN1C(=O)c2cccnc2C1=O)Nc1ccccc1F | inconclusive: -56.9%
51 | O=C(c1ccc2n[nH]nc2c1)N1CCN(c2ccc(C(F)(F)F)cn2)CC1 | inconclusive: -41.3%
52 | O=C(Nc1cccc(Cl)c1N1CCOCC1)c1cccs1 | inconclusive: -51.4%
53 | CC12CCC=CC1=C(C=O)C1C2CCC2(C)C(O)CCC12 (stereo unspecified) | inconclusive: -55.8%
54 | O=C(Oc1ccc(NC2=NS(=O)(=O)c3ccccc32)cc1)c1cccnc1 | inconclusive: -56.7%
55 | COc1ccc(C(=O)/C=C/c2cccnc2)c(OC)c1 | active: -71.6%
56 | CCOC(=O)N1CCN(C(=O)c2ccc3c(c2)N(Cc2cccc(Cl)c2)C(=O)c2ccccc2S3=O)CC1 (stereo unspecified) | inconclusive: -44.3%

Fetched by compound from the entries so far (2):
Row | Structure (SMILES) | activity change, negative = inhibition
51 | O=C(c1ccc2n[nH]nc2c1)N1CCN(c2ccc(C(F)(F)F)cn2)CC1 | inconclusive: -41.3%
43 | O=C(NCC1(c2ccccc2)CCCC1)c1cccc(Br)c1 | inconclusive: -51.9%
